Measurements: publication PMC12431657, “Discovery and mechanistic insights of dibenzoylmethane as a broad spectrum inhibitor of coronavirus” (PLOS Pathogens, 2025)
Counter-ions that a name gives are not always drawn. Like-named read-outs stand apart in the source and are kept apart here. Out of some 3,300 compounds screened, about 60 (2%) showed an effect of 50% or more. The list shows a part of the results.

Test system: HCoV-OC43
Design: species or system RD; HTS, protection from HCoV-OC43 induced cell death, luminescent cell viability (CellCounting-Lite 2.0), inhibition rate
Details: 24 h post infection, 1 h compound pre-incubation, 10 µM, inhibitor

Row | Compound | OC43 Inhibition rate | OC43 Inhibition rate (OC43 Inhibition rate, 24 h)
1 | COc1ccc(O)cc1OC [3,4-Dimethoxyphenol] | 2.5% | –
2 | c1ccc2c(c1)cc1ccc3cccc4ccc2c1c34 [Benzo[a]pyrene] | 14.9% | –
3 | COc1c2ccoc2c(OC)c2oc(=O)ccc12 [Isopimpinellin] | 2.4% | –
4 | CC(C)NCC(O)COc1cccc2ccccc12 (stereo not shown) [Propranolol (hydrochloride)] | – | 0.3%
5 | COc1ccc([C@@H]2CC(=O)c3c(O)cc(O[C@@H]4O[C@H](CO[C@@H]5O[C@@H](C)[C@H](O)[C@@H](O)[C@H]5O)[C@@H](O)[C@H](O)[C@H]4O)cc3O2)cc1O [Hesperidin] | -0.1% | –
6 | COC(=O)[C@@H](Cc1ccc(O)c(O)c1)OC(=O)/C=C/c1ccc(O)c(O)c1 [Methyl rosmarinate] | 6.3% | –
7 | O=C(/C=C/c1ccc(O)c(O)c1)OC[C@H]1O[C@@H](OCCc2ccc(O)c(O)c2)[C@H](O)[C@@H](O)[C@@H]1O [Calceolarioside B] | 4.7% | –
8 | COc1ccc2cc3n(c(=O)c2c1OC)CCc1cc2c(cc1-3)OCO2 [Oxyberberine] | 58.7% | –
9 | C=C1C(=O)[C@@]23[C@@H]4OC5O[C@@]2(O)[C@@H](O)[C@@H]2C(C)(C)CC[C@@H](O)[C@]52[C@@H]3CC[C@@H]14 [ponicidin] | 75.9% | –
10 | CCC(C)c1nccnc1OC (stereo not shown) [2-Sec-butyl-3-methoxypyrazine] | -0.4% | –
11 | C[C@@H]1O[C@@H](O[C@H]2[C@H](OC(=O)[C@]34CCC(C)(C)C[C@H]3C3=CC[C@@H]5[C@@]6(C)C[C@H](O)[C@H](O[C@@H]7O[C@H](CO)[C@@H](O)[C@H](O[C@@H]8O[C@H](CO)[C@@H](O)[C@H](O)[C@H]8O)[C@H]7O)C(CO)(CO)[C@@H]6CC[C@@]5(C)[C@]3(C)C[C@H]4O)OC[C@H](O)[C@@H]2O)[C@H](O)[C@H](O)[C@H]1O[C@@H]1OC[C@@H](O)[C@H](O[C@@H]2OC[C@](O)(CO)[C@H]2O)[C@H]1O [Platycodin D2] | 15.9% | –
12 | CN1CCc2cc3c(cc2C1O)OCO3 (stereo not shown) [Hydrastinine] | – | -0.3%
13 | CCCCCCCCCCCCCCC(=O)OC [Methyl pentadecanoate] | -1.9% | –
14 | Cc1c(C)c2c(c(C)c1O)CC[C@@](C)(CCCC(C)CCCC(C)CCCC(C)C)O2 (stereo in doubt) [rel-α-Vitamin E] | 5.5% | –
15 | O=C(O)c1cccc(O)c1O [Pyrocatechuic acid] | 1.9% | –
16 | O=c1ccc2ccc(O)cc2o1 [Umbelliferone] | -0.3% | –
17 | C=C1C(=O)O[C@@H]2/C=C(/C)[C@@H](OC(C)=O)C/C=C(/C=O)C[C@@H](OC(=O)/C(C)=C/CO)[C@@H]12 [Eupalinolide O] | 2.5% | –
18 | COc1cc2c(cc1OC)[C@@H]1Cc3ccc(OC)c(OC)c3CN1CC2 [Tetrahydropalmatine (hydrochloride)] | – | 0%
19 | O=c1[nH]cnc2c1ncn2[C@@H]1O[C@H](COP(=O)(O)OP(=O)(O)OP(=O)(O)O)[C@@H](O)[C@H]1O [Inosine-5'-triphosphate (trisodium salt)] | -2.1% | –
20 | CC(C)=CCC1=CC(=O)c2ccccc2C1=O [Deoxylapachol] | 3.8% | –

Row | Compound | OC43 Inhibition rate | OC43 Inhibition rate (OC43 Inhibition rate, 24 h)
21 | O=C(O)c1cccc2nc3ccccc3nc12 [Phenazine-1-carboxylic acid] | 1.9% | –
22 | Nc1nc2c(ncn2[C@@H]2O[C@H](CO)[C@@H](O)[C@H]2O)c(=O)[nH]1 [Guanosine] | -0.2% | –
23 | C[C@@H](CO)[C@@H]1CC[C@@]2(CC[C@]3(C)[C@H](CC[C@@H]4[C@@]5(C)CC[C@H](O[C@@H]6O[C@H](CO)[C@@H](O)[C@H](O)[C@H]6O[C@@H]6O[C@H](CO)[C@@H](O)[C@H](O)[C@H]6O)[C@@](C)(CO[C@@H]6O[C@H](CO)[C@@H](O)[C@H](O)[C@H]6O)[C@@H]5CC[C@]43C)[C@H]2O)CO1 [Hosenkoside A] | -0.1% | –
24 | CC1(C)CC[C@]2(C)CC[C@]3(C)C(=CC[C@@H]4[C@@]5(C)CC[C@H](O)C(C)(C)[C@@H]5CC[C@]43C)[C@@H]2C1 [β-Amyrin] | -0.2% | –
25 | O=c1cc(-c2ccc(O)cc2)oc2cc(O)c([C@@H]3O[C@H](CO)[C@@H](O)[C@H](O)[C@H]3O)c(O)c12 [Isovitexin] | 0.4% | –
26 | COC(=O)c1ccc(O)cn1 [Methyl 5-hydroxypyridine-2-carboxylate] | -0.6% | –
27 | CC(C)(O)C1Cc2cc3cc(-c4cc(O)cc(O)c4)oc3cc2O1 (stereo not shown) [Moracin O] | 10.8% | –
28 | COc1ccc(-c2oc3cc(O)cc(O)c3c(=O)c2O)cc1 [Kaempferide] | 0.6% | –
29 | CC1=C(O)C(=O)C=C2C1=CC=C1[C@@]2(C)CC[C@@]2(C)[C@@H]3C[C@](C)(C(=O)O)CC[C@]3(C)CC[C@]12C [Tripterin] | 0.5% | –
30 | CC(C)C(N)CC(=O)O (stereo not shown) [3-Amino-4-methylpentanoic acid] | -0.4% | –
31 | C[C@@H]1O[C@@H](OC[C@H]2O[C@@H](Oc3cc(O)c4c(c3)O[C@H](c3ccc(O)cc3)CC4=O)[C@H](O)[C@@H](O)[C@@H]2O)[C@H](O)[C@H](O)[C@H]1O [Narirutin] | -3.5% | –
32 | C[C@@H]1O[C@@H](O[C@H]2[C@H](O[C@H]3CC[C@]4(C)[C@H]5CC=C6[C@@H]7CC(C)(C)CC[C@]7(C(=O)O)CC[C@@]6(C)[C@]5(C)CC[C@H]4C3(C)C)OC[C@H](O[C@@H]3O[C@H](CO)[C@@H](O)[C@H](O)[C@H]3O)[C@@H]2O)[C@H](O)[C@H](O)[C@H]1O [Hederacolchiside A1] | -2.9% | –
33 | CC(=O)Oc1ccc(/C=C/c2cc(OC(C)=O)cc(OC(C)=O)c2)cc1 [Triacetylresveratrol] | 1% | –
34 | CC1=CC(=O)CC(C)(C)C1 [Isophorone] | -0.1% | –
35 | OCc1ccc(CO)o1 [2,5-Furandimethanol] | 4.4% | –
36 | N[C@@H](CC(=O)O)C(=O)O [L-Aspartic acid] | – | 0.2%
37 | Cc1ncc(CO)c(C(=O)O)c1O [4-Pyridoxic acid] | -0.3% | –
38 | Nc1ncc[nH]1 [2-Aminoimidazole] | -1.5% | –
39 | C[C@@H]1O[C@@H](O)[C@H](O)[C@H](O)[C@H]1O [α-L-Rhamnose monohydrate] | 2.9% | –
40 | O=C1N[C@@H](Cc2ccccc2)C(=O)N2CCC[C@@H]12 [Cyclo(L-Phe-L-Pro)] | 1.4% | –

A draw from above in order of formula weight, smallest number first.
Row | Compound | OC43 Inhibition rate | OC43 Inhibition rate (OC43 Inhibition rate, 24 h)
30 | CC(C)C(N)CC(=O)O (stereo not shown) [3-Amino-4-methylpentanoic acid] | -0.4% | –
16 | O=c1ccc2ccc(O)cc2o1 [Umbelliferone] | -0.3% | –
3 | COc1c2ccoc2c(OC)c2oc(=O)ccc12 [Isopimpinellin] | 2.4% | –

Additional entries.

Row | Compound | OC43 Inhibition rate | OC43 Inhibition rate (OC43 Inhibition rate, 24 h)
41 | COc1cc([C@H]2OC[C@H]3[C@@H]2CO[C@@H]3c2ccc(O[C@@H]3O[C@H](CO)[C@@H](O)[C@H](O)[C@H]3O)c(OC)c2)ccc1O[C@@H]1O[C@H](CO)[C@@H](O)[C@H](O)[C@H]1O [Pinoresinol Diglucoside] | -0.6% | –
42 | CC(C)(COP(=O)(O)OP(=O)(O)OC[C@H]1O[C@@H](n2cnc3c(N)ncnc32)[C@H](O)[C@@H]1OP(=O)(O)O)[C@@H](O)C(=O)NCCC(=O)NCCS [Coenzyme A] | 0% | –
43 | COc1c2c(cc3c1-c1c(cc4c(c1OC)OCO4)C[C@H](C)[C@H](C)C3)OCO2 [Schisandrin C] | 4.9% | –
44 | O=C(O)/C=C/c1ccc(O)c(O)c1 [Caffeic acid] | 1.3% | –
45 | CC(C)CC(=O)NCC(=O)O [N-Isovaleroylglycine] | -0.4% | –
46 | C=C1C[C@@]2(O)O[C@@]3(C[C@H]2C(C)C)[C@@H](C)CC[C@@H]13 [Curcumol] | -0.3% | –
47 | N[C@@H]1CONC1=O [D-Cycloserine] | -1.2% | –
48 | CCCOC(=O)c1cc(O)c(O)c(O)c1 [Propyl gallate] | -0.1% | –
49 | COc1c(/C=C/C(=O)c2ccc(O)c(O)c2)ccc(O)c1O [Tetrahydroxymethoxychalcone] | 1.6% | –
50 | COc1cc(-c2oc3cc(O)cc(O)c3c(=O)c2O[C@@H]2O[C@H](CO[C@@H]3O[C@@H](C)[C@H](O)[C@@H](O)[C@H]3O)[C@@H](O)[C@H](O)[C@H]2O)ccc1O [Narcissin] | -1% | –
51 | CCCCCCCCCCCCCCCC(=O)NCc1ccccc1 [N-Benzylpalmitamide] | -0.2% | –
52 | C[C@@H]1O[C@@H](Oc2cc(O)c3c(c2)O[C@H](c2ccc(O)c(O)c2)[C@@H](O)C3=O)[C@H](O)[C@H](O)[C@H]1O [Taxifolin 7-O-rhamnoside] | 4.1% | –
53 | C[C@H]1CC[C@@H]2N(C1)C[C@H]1[C@@H]3C[C@H]4[C@@H](CC(=O)[C@H]5C[C@@H](O[C@@H]6O[C@H](CO)[C@@H](O)[C@H](O)[C@H]6O)CC[C@@]54C)[C@@H]3CC[C@@H]1[C@]2(C)O [Edpetiline] | -0.6% | –
54 | CC(=O)N[C@@H](CCCN)C(=O)O [N-Acetylornithine] | -0.4% | –
55 | O=C(O)c1ccccn1 [PCL 016] | -0.3% | –
56 | C[C@H](O)[C@H](O)[C@@H](O)[C@@H](O)C=O [Rhamnose (monohydrate)] | -1.4% | –
57 | C[C@@H]1O[C@@H](c2c(O)c([C@@H]3O[C@H](CO)[C@@H](O)[C@H](O)[C@H]3O)c(O)c3c(=O)cc(-c4ccc(O)cc4)oc23)[C@H](O)[C@H](O)[C@H]1O [Violanthin] | -0.4% | –
58 | C[C@H]1O[C@@H](O[C@H]2CC[C@@]3(C)[C@@H](CC[C@]4(C)[C@@H]3C=CC3=C5CC(C)(C)CC[C@]5(CO)[C@H](O)C[C@]34C)[C@]2(C)CO)[C@H](O)[C@@H](O)[C@H]1O [Prosaikogenin D] | 5% | –

One compound at a time, as listed above:
CCCOC(=O)c1cc(O)c(O)c(O)c1 [Propyl gallate] as listed: OC43 Inhibition rate: -0.1%
O=C(O)/C=C/c1ccc(O)c(O)c1 [Caffeic acid] as listed: OC43 Inhibition rate: 1.3%
